Assay results as given in patent US20260184675A1, “CHIRAL ISOMERIC SULFITE COMPOUND AND APPLICATION THEREOF” (Chengdu Hanova BioSciences Co., Ltd, priority 2024, published 2026).
Some of these results come from one statement about several compounds together. For at least one compound, name, drawing or mass did not settle the structure.

Each compound was assayed on Magnaporthe grisea. Settings: 100 ppm.
Format: cell-based
With `CC(C)(COS(=O)OCCF)Oc1ccc(Cl)cc1Cl` (stereo not shown) [S-10′] the antifungal rate was ≥ 90%. For `C[C@H](COS(=O)OCCF)Oc1ccc(Cl)cc1Cl` (stereo partly drawn) [1-(R,R)], the antifungal rate was ≥ 90%. In the case of `CCC(COS(=O)OCCF)Oc1ccc(Cl)cc1Cl` (stereo not shown) [Compound 19′], the antifungal rate is reported as ≥ 90%. For `C[C@@H](COS(=O)OCCF)Oc1ccc(Cl)cc1Cl` (stereo partly drawn) [1-(S,S)], the antifungal rate was ≥ 90%. For `CC(COc1ccc(Cl)cc1Cl)OS(=O)OCCF` [1′-(R,S)], the antifungal rate was ≥ 90%. `CC[C@H](COc1ccc(Cl)cc1Cl)OS(=O)OCCF` (stereo partly drawn) [19-(R,S)] was tested, and the antifungal rate was ≥ 90%. For `CC(COc1ccc(Cl)cc1Cl)OS(=O)OCCF` [1′-(S,R)], the antifungal rate was ≥ 90%. For `CCC(COc1ccc(Cl)cc1Cl)OS(=O)OCCF` (stereo not shown) [Compound 19], the antifungal rate was ≥ 90%. For `CC(C)(COc1ccc(Cl)cc1Cl)OS(=O)OCCF` (stereo not shown) [Compound 10], the antifungal rate was ≥ 90%. `CC[C@@H](COS(=O)OCCF)Oc1ccc(Cl)cc1Cl` (stereo partly drawn) [19′-(S,S)] was tested, and the antifungal rate was ≥ 90%. With `CC(COc1ccc(Cl)cc1Cl)OS(=O)OCCF` (stereo not shown) [Compound 1′] the antifungal rate was ≥ 90%. With `CC(C)(COc1ccc(Cl)cc1Cl)OS(=O)OCCF` (stereo not shown) [Compound S-10] the antifungal rate was ≥ 90%. In the case of `CC(COS(=O)OCCF)Oc1ccc(Cl)cc1Cl` (stereo not shown) [Compound 1], the antifungal rate is reported as ≥ 90%. For `CC[C@@H](COc1ccc(Cl)cc1Cl)OS(=O)OCCF` (stereo partly drawn) [19-(S,R)], the antifungal rate was ≥ 90%. In the case of `CCC(COS(=O)OCCF)Oc1ccc(Cl)cc1Cl` [19′-(R,R)], the antifungal rate is reported as ≥ 90%. In the case of `CC(C)(COS(=O)OCCF)Oc1ccc(Cl)cc1Cl` (stereo not shown) [Compound 10′], the antifungal rate is reported as ≥ 90%.
